Among all 400,000 compounds or so, about 3,700 (0.93%) were called active. Inconclusive results, whose numbers are uncertain, are shown with a selection of clear calls. Calls come from the whole dose curve; as a rule, active = well fitted inhibition curve with a large enough effect; inconclusive = small, poorly fitted or top-dose-only effect, or another doubt; inactive = no such curve, though single readings can be large or run the other way. Potencies beside an inconclusive call are fits to weak or partial responses and may not hold up.
Each molecule was assayed against Vitamin D3 receptor (Homo sapiens) (UniProt P11473) (assay: Inhibitors of the vitamin D receptor (VDR): qHTS). Settings: VDR-SRC2-3 peptide fluorescence polarization, 2 h; max response, negative = inhibition: stronger effect = lower value.
Summary of the method: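 Fluorescence polarization assay measuring small-molecule disruption of VDR binding to the coregulator peptide SRC2-3. Compounds were pin-transferred (23 nl) into the reagent mix and incubated 2 h at room temperature before reading.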
% is set by controls: 0 for no effect and ±100 for the full control effect; potency is the fitted concentration of half-maximal effect.

Chains of the proteins cited; added tags and fusions are not shown. Lines headed by an entry give the natural chain unless they say otherwise; changes in a name come on top.
UniProt P11473: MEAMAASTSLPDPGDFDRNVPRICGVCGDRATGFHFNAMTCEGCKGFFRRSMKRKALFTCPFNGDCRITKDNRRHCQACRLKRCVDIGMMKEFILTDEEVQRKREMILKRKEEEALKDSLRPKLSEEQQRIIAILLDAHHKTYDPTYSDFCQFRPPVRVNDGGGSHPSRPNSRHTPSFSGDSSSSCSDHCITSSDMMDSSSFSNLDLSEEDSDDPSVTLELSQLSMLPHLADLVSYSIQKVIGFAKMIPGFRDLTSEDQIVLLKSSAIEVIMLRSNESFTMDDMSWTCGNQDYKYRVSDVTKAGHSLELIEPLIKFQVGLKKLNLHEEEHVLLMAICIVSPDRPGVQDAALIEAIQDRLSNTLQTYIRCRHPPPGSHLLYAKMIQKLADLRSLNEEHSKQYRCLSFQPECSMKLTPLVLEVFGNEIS

Row | SMILES | Potency | max response, negative = inhibition
1 | CCn1c(CNC(=O)c2ccc(OC)cc2)nnc1SCC(=O)c1ccccc1 | inconclusive: 89.1 µM [inhibitor, single point] | 
2 | C[C@@H]1C[C@H]2[C@@H]3C[C@H](F)C4=CC(=O)C=C[C@]4(C)[C@@]3(F)[C@@H](O)C[C@]2(C)[C@@]1(O)C(=O)CO | inconclusive: 79.4 µM [inhibitor, partial curve] | 
3 | O=C(COc1ccccc1)Nc1nnc(-c2ccc3c(c2)CCCC3)o1 |  | inactive: -27.3%
4 | O=C(O)CCSc1ccc([N+](=O)[O-])cc1[N+](=O)[O-] | inconclusive: 44.7 µM [inhibitor, partial curve, poor fit] | 
5 | Cc1csc(SC(C)C(=O)NCC2CCCO2)n1 (stereo not given) |  | inactive: -0.18%
6 | O=[N+]([O-])c1cc(Cl)ccc1N1CCOCC1 |  | inactive: -0.7%
7 | CCN1CCN(C(c2cc(OC)c(OC)c(OC)c2)c2nnnn2C(C)C)CC1 (stereo not given) |  | inactive: 8.59%
8 | COC(=O)c1ccc(OCC2c3cc(OC)c(OC)cc3CCN2C(=O)COc2ccc(Cl)cc2)cc1 (stereo not given) |  | inactive: 5.09%
9 | O=C(CN1CCOCC1)Nc1cccc([N+](=O)[O-])c1 |  | inactive: -1.57%
10 | Cc1ccc(C2SCC(=O)N2c2ccccc2)cc1 (stereo not given) | inconclusive: 89.1 µM [inhibitor, single point] | 
11 | Cc1ccc(C(C#N)c2ccc(C(=O)c3ccc(F)cc3)cc2)cc1 (stereo not given) |  | inactive: -15%
12 | CC(=O)N1CCC2(CC1)CCN(C(=O)Nc1cccc(F)c1)CC2 | inconclusive: 100 µM [inhibitor, partial curve, poor fit] | 
13 | Cc1cccc(/C=C(\c2nc3ccccc3[nH]2)S(=O)(=O)c2ccccc2)c1 | inconclusive: 50.1 µM [inhibitor, partial curve, poor fit] | 
14 | O=C1c2ccccc2C(=O)N1CCOc1ccccc1Br | inconclusive: 89.1 µM [inhibitor, partial curve, poor fit] | 
15 | COc1ccc(N2C(=O)CC(Sc3nnc(-c4ccccc4)o3)C2=O)cc1 (stereo not given) |  | inactive: -4.6%
16 | CCOc1ccc(N2C(=O)C3Sc4[nH]c(=O)sc4C(/C=C/c4ccccc4)C3C2=O)cc1 (stereo not given) | inconclusive: 89.1 µM [inhibitor, partial curve, poor fit] | 
17 | COc1cc(NS(=O)(=O)c2ccc(NC(=S)NC(=O)c3sc4ccccc4c3Cl)cc2)nc(OC)n1 |  | inactive: -12.4%
18 | C/C=C\C=C\C(=O)N1CC2(CC(c3cccc(NC(=O)CC(c4ccccc4)c4ccccc4)c3)=NO2)C[C@H]1C(N)=O (stereo not given in full) | inconclusive: 89.1 µM [inhibitor, partial curve, poor fit] | 
19 | N#Cc1ccc(CS(=O)(=O)c2nnnn2-c2ccccc2)cc1 | active: 44.7 µM | 
20 | O=C(c1ccc(-c2ccc([N+](=O)[O-])cc2)o1)N1CCCC(C(F)(F)F)C1 (stereo not given) |  | inactive: -9.09%

In the list so far, 9 have nitrogen in an aromatic ring:
Row | SMILES | Potency | max response, negative = inhibition
1 | CCn1c(CNC(=O)c2ccc(OC)cc2)nnc1SCC(=O)c1ccccc1 | inconclusive: 89.1 µM [inhibitor, single point] | 
3 | O=C(COc1ccccc1)Nc1nnc(-c2ccc3c(c2)CCCC3)o1 |  | inactive: -27.3%
5 | Cc1csc(SC(C)C(=O)NCC2CCCO2)n1 (stereo not given) |  | inactive: -0.18%
7 | CCN1CCN(C(c2cc(OC)c(OC)c(OC)c2)c2nnnn2C(C)C)CC1 (stereo not given) |  | inactive: 8.59%
13 | Cc1cccc(/C=C(\c2nc3ccccc3[nH]2)S(=O)(=O)c2ccccc2)c1 | inconclusive: 50.1 µM [inhibitor, partial curve, poor fit] | 
15 | COc1ccc(N2C(=O)CC(Sc3nnc(-c4ccccc4)o3)C2=O)cc1 (stereo not given) |  | inactive: -4.6%
16 | CCOc1ccc(N2C(=O)C3Sc4[nH]c(=O)sc4C(/C=C/c4ccccc4)C3C2=O)cc1 (stereo not given) | inconclusive: 89.1 µM [inhibitor, partial curve, poor fit] | 
17 | COc1cc(NS(=O)(=O)c2ccc(NC(=S)NC(=O)c3sc4ccccc4c3Cl)cc2)nc(OC)n1 |  | inactive: -12.4%
19 | N#Cc1ccc(CS(=O)(=O)c2nnnn2-c2ccccc2)cc1 | active: 44.7 µM | 

Remaining list, next part

Row | SMILES | Potency | max response, negative = inhibition
21 | Cc1ccc(Nc2c(-c3ccco3)nc3nc(C)cc(C)n23)cc1 | inconclusive: 70.8 µM [inhibitor, partial curve, poor fit] | 
22 | C=C(C(=O)c1ccccc1)C(C)CC(=O)c1ccccc1 (stereo not given) | active: 79.4 µM | 
23 | O=C(COc1ccc2c(c1)OCO2)Nc1nnc(Cc2ccccc2)s1 | inconclusive: 56.2 µM [inhibitor, partial curve, poor fit] | 
24 | COCCCN(C(=S)Nc1c(C)cc(C)cc1C)C(C)c1ccccn1 (stereo not given) |  | inactive: 6.39%
25 | Cc1ccc(/C=C2\CC(C)CC3=C2NC(=S)NC3c2ccc(C)cc2)cc1 (stereo not given) | inconclusive: 89.1 µM [inhibitor, partial curve, poor fit] | 
26 | Cc1ccc2[nH]c(O)c(N=Nc3ccccc3C)c2c1 | inconclusive: 56.2 µM [inhibitor, partial curve, poor fit] | 
27 | CCC(C)/C(C)=N/NC(=O)c1ccc(COc2ccc(Cl)c(C)c2)cc1 (stereo not given) |  | inactive: -5.97%
28 | COc1ccccc1-c1ccc2ncnc(N3CCOCC3)c2c1 | inconclusive: 89.1 µM [inhibitor, single point] | 
29 | Cn1c(NCCO)nc2c1c(=O)n(Cc1ccccc1Cl)c(=O)n2C |  | inactive: -8.9%
30 | Cc1cccc(-n2ncc(C#N)c2-n2cccc2)c1 | inconclusive: 89.1 µM [inhibitor, single point] | 
31 | Cc1ccc2nc3sc(C(=O)Nc4c(C)[nH]c(=O)[nH]c4=O)c(N)c3cc2c1 |  | inactive: 8.57%
32 | Cc1ccc2[nH]c3c(=O)n(CC(=O)N4CCN(C)CC4)ncc3c2c1 | inconclusive: 39.8 µM [inhibitor, full curve, poor fit] | 
33 | Cc1ccc(N2C(=O)C(Cl)=C(N3CCN(C)CC3)C2=O)c(C)c1 | inconclusive: 14.1 µM [inhibitor, partial curve, poor fit] | 
34 | COc1ccc2c(c1)CCCC21NC(=O)N(CC(=O)c2cc(F)ccc2F)C1=O (stereo not given) | inconclusive: 79.4 µM [inhibitor, partial curve, poor fit] | 
35 | N#Cc1nc(COc2ccccc2F)oc1NCCc1ccccc1 | inconclusive: 39.8 µM [inhibitor, partial curve, poor fit] | 
36 | Cc1cc(C)nc(Nc2n[nH]c(COc3ccccc3)n2)n1 | inconclusive: 39.8 µM [inhibitor, single point] | 
37 | CC1=NN(c2ccc(Cl)c(C(=O)O)c2)C(=O)/C1=C/c1ccc(-c2ccccc2[N+](=O)[O-])o1 | active: 50.1 µM | 
38 | CCOC(=O)c1cn(Cc2cccc(C)c2)nn1 | inconclusive: 100 µM [inhibitor, single point] | 
39 | O=C(O)c1ccc(N/N=C/C=C/c2ccc([N+](=O)[O-])o2)cc1 | inconclusive: 70.8 µM [inhibitor, single point] | 
40 | O=C(COc1ccccc1)Nc1nnc(-c2ccccc2Cl)o1 | inconclusive: 89.1 µM [inhibitor, partial curve, poor fit] | 

Row | SMILES | Potency | max response, negative = inhibition
41 | CC(=O)Oc1ccccc1C(=O)C=Cc1cccc([N+](=O)[O-])c1 | active: 22.4 µM | 
42 | O=C(Nc1cc(C(F)(F)F)ccc1N1CCOCC1)C1CC1 | inconclusive: 100 µM [inhibitor, partial curve, poor fit] | 
43 | Cc1cccc(-n2c(-c3ccccc3)cn3c4c(=O)[nH]c(=O)n(C)c4nc23)c1 | inconclusive: 89.1 µM [inhibitor, single point] | 
44 | COc1ccc(/C=N/NC(=O)c2ccccc2O)cc1Cn1cc([N+](=O)[O-])cn1 |  | inactive: 4.5%
45 | Cc1ccc(C(=O)NC(=S)NNC(=O)c2ccccc2[N+](=O)[O-])cc1 | inconclusive: 100 µM [inhibitor, partial curve, poor fit] | 
46 | Cc1cccc(C)c1OCC(=O)Nc1nc(-c2ccc(Br)cc2)ns1 |  | inactive: 3.69%
47 | CC[C@H](C)[C@H](NC(=O)[C@H](CCC(=O)O)NC(=O)[C@@H](N)CO)C(=O)N[C@@H](CCC(N)=O)C(=O)N[C@@H](CC(C)C)C(=O)N[C@@H](CCSC)C(=O)N[C@@H](Cc1cnc[nH]1)C(=O)N[C@@H](CC(N)=O)C(=O)N[C@@H](CC(C)C)C(=O)NCC(=O)N[C@@H](CCCCN)C(=O)N[C@@H](Cc1cnc[nH]1)C(=O)N[C@@H](CC(C)C)C(=O)N[C@@H](C)C(=O)N[C@@H](CO)C(=O)N[C@H](C(=O)N[C@@H](CCC(=O)O)C(=O)N[C@@H](CCCNC(=N)N)C(=O)N[C@@H](CCSC)C(=O)N[C@@H](CCC(N)=O)C(=O)N[C@@H](Cc1c[nH]c2ccccc12)C(=O)N[C@@H](CC(C)C)C(=O)N[C@@H](CCCNC(=N)N)C(=O)N[C@@H](CCCCN)C(=O)N[C@@H](CCCCN)C(=O)N[C@@H](CC(C)C)C(=O)N[C@@H](CCC(N)=O)C(=O)N[C@@H](CC(=O)O)C(=O)N[C@H](C(=O)N[C@@H](Cc1cnc[nH]1)C(=O)N[C@@H](CC(N)=O)C(=O)N[C@@H](Cc1ccccc1)C(=O)O)C(C)C)C(C)C |  | inactive: 7.02%
48 | N#Cc1ccc(CN2CC[C@@]3(CCCN(C(=O)c4ccco4)C3)C2)cc1 | inconclusive: 89.1 µM [inhibitor, partial curve, poor fit] | 
49 | COc1cc(CNCc2cccnc2)ccc1OCc1ccccc1 |  | inactive: -4.79%
50 | Brc1cccc(OCCSc2ncccn2)c1 |  | inactive: -21%
51 | CCOC(=O)c1sc(=S)n(-c2ccc(F)c(F)c2)c1N | active: 89.1 µM | 
52 | CC1CCc2c(sc3[nH]c(=S)n(C)c(=O)c23)C1 (stereo not given) | inconclusive: 89.1 µM [inhibitor, partial curve] | 
53 | COc1ccc(-n2ccnc(SCC(=O)NCc3ccccc3Cl)c2=O)cc1 | inconclusive: 79.4 µM [inhibitor, partial curve, poor fit] | 
54 | COC(=O)c1nc(NC(=O)c2ccc(C(C)(C)C)cc2)n[nH]1 | inconclusive: 89.1 µM [inhibitor, single point] | 
55 | FC(F)(F)c1nc(=S)c2ccccc2[nH]1 | inconclusive: 56.2 µM [inhibitor, partial curve, poor fit] | 
56 | CCCCNC(=O)COC(=O)CCC(=O)c1ccc(Cl)cc1 | inconclusive: 89.1 µM [inhibitor, partial curve, poor fit] | 
57 | NC(=O)c1sc2nc(-c3ccccc3)ccc2c1N | inconclusive: 100 µM [inhibitor, single point] | 
58 | c1cncc(-c2nn3c(Cn4nnc5ccccc54)nnc3s2)c1 | inconclusive: 70.8 µM [inhibitor, single point] | 
59 | O=C(O)c1ccccc1-c1ccccc1C(=O)NNc1ccccc1 | inconclusive: 89.1 µM [inhibitor, single point] | 
60 | CN1C(=O)c2oc3ccccc3c(=O)c2C1c1ccncc1 (stereo not given) | active: 79.4 µM | 

Single values from above:
c1cncc(-c2nn3c(Cn4nnc5ccccc54)nnc3s2)c1 – Potency: inconclusive: 70.8 µM [inhibitor, single point]
CN1C(=O)c2oc3ccccc3c(=O)c2C1c1ccncc1 (stereo not given) – Potency: active: 79.4 µM
